Here are results for 3 molecules from patent US20210139574A1.

Protein sequences, listed by entry. Tags and fused reporters are not part of them. Lines headed by an entry give the natural chain unless they say otherwise; changes in a name come on top. Chains listed by the source or under a name are the forms on record and can include a tag or linker.
pathological Tau from samples of human PSP (lysate, Western blot) (P10636, form named): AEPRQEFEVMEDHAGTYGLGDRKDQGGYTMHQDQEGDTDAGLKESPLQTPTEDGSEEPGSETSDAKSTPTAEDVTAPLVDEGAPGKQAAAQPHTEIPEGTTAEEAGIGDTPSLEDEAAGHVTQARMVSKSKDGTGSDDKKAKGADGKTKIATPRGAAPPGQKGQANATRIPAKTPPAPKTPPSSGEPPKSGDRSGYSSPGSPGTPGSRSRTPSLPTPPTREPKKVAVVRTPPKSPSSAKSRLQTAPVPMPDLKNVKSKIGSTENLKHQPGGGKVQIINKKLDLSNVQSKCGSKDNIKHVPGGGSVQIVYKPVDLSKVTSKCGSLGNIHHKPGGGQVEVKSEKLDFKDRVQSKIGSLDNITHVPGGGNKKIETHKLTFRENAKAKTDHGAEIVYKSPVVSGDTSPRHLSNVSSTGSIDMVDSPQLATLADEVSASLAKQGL

These are yes or no findings as the source states them, for the method shown. Some results given as binding are weak or reduced against the parent protein; the word gives no strength.

The target of assay [1] is pathological Tau in cryosections of human brain with positive Tau pathology (AT8 positive samples) (human) (UniProt P10636). As to the kind of experiment: immunostaining of human brain cryosections, positive Tau pathology samples.
Assay [2] has as its target Tau in human brain samples without Tau pathology (AT8 negative tissues) (human) (UniProt P10636). Description: immunostaining of human brain cryosections, negative Tau pathology samples.
The target in assay [3] is pathological Tau from samples of human AD (lysate, Western blot) (human) (UniProt P10636). Description: Western blot of brain lysate (20 ug protein per lane, SDS-PAGE, PVDF), chemiluminescent read-out.
Assay [4] has the same target. Description: Western blot of human AD lysate.
Assay [5] deals with pathological Tau from samples of human PSP (lysate, Western blot) (human) (UniProt P10636). As to the kind of experiment: Western blot of human PSP lysate. A general note: In western blotting, separated proteins are transferred to a membrane and probed.

B1: humanized AB1 having a VL of SEQ ID No.: 11 and VH of SEQ ID No.: 14 (antibody, V domains shown)
VH: ELQLQESGPGLVKPSETLSLTCTVSGIDLSTWRMNWIRQPPGKGLEWIGIIGTGGRTYYANWAKGRVTISKDTSKNQVSLKLSSVTAADTAVYYCARLGANNQGYPLDLWGQGTLVTVSS
VL: DIQMTQSPSSLSASVGDRVTITCQASQSVSSYLAWYQQKPGKAPKLLIYAASYLASGVPSRFSGSGSGTDFTLTISSLQPEDFATYYCQQGYTRTDIDNTFGGGTKVEIK
Consider B1, for which the binding entry in assay [1] and in assay [2] was “binds” throughout.

B2: humanized AB1 having a VL of SEQ ID No.: 11 and VH of SEQ ID No.: 15 (antibody, V domains shown)
VH: ELQLQESGPGLVKPSETLSLTCTVSGIDLSTWRMNWIRQPPGKGLEWIGIIGTGGRTYYANWAKGRVTISKDTSKNQVSLKLSSVTAADTAVYYCARLGANNAGYPLDLWGQGTLVTVSS
VL: DIQMTQSPSSLSASVGDRVTITCQASQSVSSYLAWYQQKPGKAPKLLIYAASYLASGVPSRFSGSGSGTDFTLTISSLQPEDFATYYCQQGYTRTDIDNTFGGGTKVEIK
For the molecule B2, the binding result in assay [1] and in assay [2] was “binds” in each case.

B3: AB1 having a murinised VL of SEQ ID NO: 9 and a murinised VH of SEQ ID NO.: 10 (antibody, V domains shown)
VH: QVQLKESGPGLVAPSQSLSITCTVSGIDLSTWRMNWVRQPPGKGLEWIGIIGTGGRTYYANWAKGRFSISKDSTQVFLKMNSLQTEDTATYFCARLGANNNGYPLDLWGAGTTVTVSS
VL: DVVMTQSPASLAVSLGQRATISCQASQSVSSYLAWYQQKPGQPPKLLIYAASYLASGVPSRFKGSGSGTEFTLNIHPVEEEDAATYYCQQGYTRTDIDNTFGGGTKLEIK
Turning to B3, the binding result in assay [3], in assay [4] and in assay [5] was “binds” throughout.
